Holding throughout (assay): SDS agarose gel electrophoresis
Test [1] addresses YPet-RIPK1(497-583) (human) (UniProt Q13546).
In test [2] the target is YPet-RIPK3(387-518) (human) (UniProt Q9Y572).
Test [3] addresses mCHERRY-M45(1-277WT) (murine cytomegalovirus) (UniProt Q06A28).
In test [4] the target is YPet-RIPK3(387-518) (human) (UniProt Q9Y572). The source holds these as a separate data set.

Protein sequences, listed by entry. Tags and fused reporters are not part of them. Residues count along the entry.
UniProt Q9Y572, residues 387-518: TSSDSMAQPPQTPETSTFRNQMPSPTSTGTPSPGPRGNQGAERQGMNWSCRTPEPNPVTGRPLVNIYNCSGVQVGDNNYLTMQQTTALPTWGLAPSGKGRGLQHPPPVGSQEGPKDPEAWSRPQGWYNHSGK

Read-outs that look alike come from different tables or passages of the source. Results are given in words; binding and its absence hold for the method and conditions named. Some results given as binding are weak or reduced against the parent protein; the word gives no strength.

Turning to “mCHERRY-M45(1-277WT) (from UniProt Q06A28 1-277) (domain or fragment)”, the binding result in test [1], in test [2] and in test [3] was “binds” throughout.

B1: YPet-RIPK1(497-583) (domain or fragment, human, UniProt Q13546 497-583, looked up)
chain: MPSLHNIPVPETNYLGNTPTMPFSSLPPTDESIKYTIYNSTGIQIGAYNYMEIGGTSSSLLDSTNTNFKEEPAAKYQAIFDNTTSLT
Take B1: the binding result in test [1] is “binds”.

B2: mCHERRY-M45(1-90WT) (domain or fragment, murine cytomegalovirus, UniProt Q06A28 1-90, looked up)
chain: MDRQPKVYSDPDNGFFFLDVPMPDDGQGGQQTATTAAGGAFGVGGGHSVPYVRIMNGVSGIQIGNHNAMSIASCWSPSYTDRRRRSYPKT
On to B2, for which the binding entry in test [4] is on record as “no binding (condition: with 2% SDS)”; in test [2], “binds”.

(Values after publication doi:10.1101/324590 (bioRxiv, 2018).)
